Counter-ions that a name gives are not always drawn.
Test system: mitochondrial membrane potential of P. falciparum strain K1 trophozoites
Assay: Rhodamine 123 staining for mitochondrial membrane potential, flow cytometry
Format: cell-based, Plasmodium falciparum
Description: Changes in mitochondrial membrane potential were measured using rhodamine 123 (excitation wavelength, 511 nm; emission wavelength, 534 nm), a membrane-permeating cationic fluorescent dye ([49]), which accumulates by electrostatic attraction in the mitochondria because of its negative transmembrane potential. A change in the dye’s concentration in the mitochondria is caused by a depolarization event and can be visualized as a shift in the fluorescence intensity of rhodamine 123 ([50]). Draq5 (excitation wavelength, 647 nm; emission wavelength, >665 nm) is a far-red fluorescent DNA dye which is cell permeating and was used to distinguish the parasites in flow cytometry in the allophycocyanin (APC)-Cy7-A channel. SYBR green was not preferred for this experiment as it emits in the same channel as rhodamine 123 and would result in the overlap of emission signals. Fluorescence microscopy was used to visualize the localization of rhodamine 123 within the cytoplasm of the parasites (Fig. 9).
A decrease in fluorescence intensity measured in the fluorescein isothiocyanate (FITC)-A channel indicates a loss of mitochondrial membrane potential. Atovaquone, a known mitochondrial inhibitor, was used as a control.
Compounds were then washed away by centrifuging the cultures, and a pellet was prepared for each drug concentration. Pellets were then incubated with 1 ml of 200 nM rhodamine 123 for 1 h, followed by a further incubation with 100 μl of 5 μM Draq5 for 20 min. After a wash with PBS, the experiment was read with a flow cytometer on the FITC channel. Loss of mitochondrial membrane potential was indicated by a decrease in fluorescence intensity.

Structure (SMILES)	FITC-A mean (at IC50)	FITC-A mean (range gate) (at IC50)	Parasitaemia (at IC50)	FITC-A mean (at IC50x10)	FITC-A mean (range gate) (at IC50x10)	Parasitaemia (at IC50x10)
O=C1C(O)=C([C@H]2CC[C@H](c3ccc(Cl)cc3)CC2)C(=O)c2ccccc21 [Atovaquone, atovaquone]	2809	3705	1.69%	2750	3821	1.66%
CC[C@H]1CN2CCc3cc(OC)c(OC)cc3[C@@H]2C[C@@H]1C[C@H]1NCCc2cc(OC)c(OC)cc21 [Emetine dihydrochloride, emetine dihydrochloride]	3333	4491	1.73%	3139	4301	1.72%
CCC1=C(C[C@H]2NCCc3cc(OC)c(OC)cc32)C[C@H]2c3cc(OC)c(OC)cc3CCN2C1 [(−)-R,S-dehydroemetine, (S)-2-((R)-6,7-dimethoxy-1,2,3,4-tetrahydro-isoquinolin-1-ylmethyl)-3-ethyl-9,10-dimethoxy-1,6,7,11b-tetrahydro-4H-pyrido[2,1-a]isoquinoline * dihydrobromide]	3544	4894	1.78%	3243	4390	1.67%

Reference: article PMC7179302, “Lead Optimization of Dehydroemetine for Repositioned Use in Malaria” (Antimicrobial Agents and Chemotherapy, 2020)
